{"source": "paper PMC7647121", "key": {"[1]": {"molecular_target": "Leishmania mexicana UEV1 (LmxM.13.1580) (Leishmania mexicana) (UniProt E9API2)", "assay": "crystal structure; UBC2 and UEV1 mixed 1:1 molar, 6.6 mg/mL in 50 mM HEPES, 150 mM NaCl, 2 mM DTT; crystals from 0.1 M Bis-Tris propane pH 7.5, 0.2 M sodium formate, 20% PEG at 25°C; space group P21, two heterodimers in the asymmetric unit; 1.7 Å; both purified"}, "[2]": {"molecular_target": "Leishmania mexicana UEV1 (LmxM.13.1580) (Leishmania mexicana) (UniProt E9API2)", "assay": "SEC-MALS; SEC-MALLS; Superdex 200 HR10/300; 25 mM Tris-HCl, 150 mM NaCl, 1 mM DTT, pH 8; samples loaded at 1.2-2 mg/mL; mixtures (1:1 molar) incubated on ice for 30 min before loading; both purified"}}, "note": "These are yes or no findings as the source states them, for the method shown. Binding calls can cover weak binding; strength is not graded here."}
{"substance": "Leishmania mexicana UBC2 (LmxM.04.0680) (from UniProt E9AK51) (enzyme)", "values": [{"measurement": "binding", "setting": "[1]", "result": "binds"}, {"measurement": "binding", "setting": "[2]", "result": "binds"}]}
